Test results taken from the supplement of paper PMC12823440, “Inhibitors supercharge kinase turnover through native proteolytic circuits” (Nature, 2025).
Some of the results follow. The calls rarely recur for the same compound in another form.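 In K562 cells expressing nanoluciferase-fused kinases, luminescence was recorded at 4 h intervals between 2 and 18 h, normalized as percent of control with DMSO at 100% and a positive control at 0%. A significant (2 sigma) signal drop marks a time point as decreased. The authors' rule for a hit is not shown and takes in more than the number of time points.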

Chains of the proteins cited; added tags and fusions are not shown. Lines headed by an entry give the natural chain unless they say otherwise; changes in a name come on top.
UniProt Q15208: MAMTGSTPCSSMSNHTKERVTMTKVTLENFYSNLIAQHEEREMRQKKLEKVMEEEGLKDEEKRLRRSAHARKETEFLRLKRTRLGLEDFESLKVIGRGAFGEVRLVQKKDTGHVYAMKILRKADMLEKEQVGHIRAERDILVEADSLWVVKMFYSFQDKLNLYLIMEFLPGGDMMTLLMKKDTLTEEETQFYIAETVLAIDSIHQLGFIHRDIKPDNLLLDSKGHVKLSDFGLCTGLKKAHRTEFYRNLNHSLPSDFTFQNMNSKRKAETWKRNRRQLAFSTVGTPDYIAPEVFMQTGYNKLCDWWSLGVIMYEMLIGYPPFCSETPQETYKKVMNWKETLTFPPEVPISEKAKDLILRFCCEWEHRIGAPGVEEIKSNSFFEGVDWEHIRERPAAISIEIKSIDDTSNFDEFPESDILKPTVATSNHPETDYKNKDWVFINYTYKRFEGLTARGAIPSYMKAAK
UniProt P42680: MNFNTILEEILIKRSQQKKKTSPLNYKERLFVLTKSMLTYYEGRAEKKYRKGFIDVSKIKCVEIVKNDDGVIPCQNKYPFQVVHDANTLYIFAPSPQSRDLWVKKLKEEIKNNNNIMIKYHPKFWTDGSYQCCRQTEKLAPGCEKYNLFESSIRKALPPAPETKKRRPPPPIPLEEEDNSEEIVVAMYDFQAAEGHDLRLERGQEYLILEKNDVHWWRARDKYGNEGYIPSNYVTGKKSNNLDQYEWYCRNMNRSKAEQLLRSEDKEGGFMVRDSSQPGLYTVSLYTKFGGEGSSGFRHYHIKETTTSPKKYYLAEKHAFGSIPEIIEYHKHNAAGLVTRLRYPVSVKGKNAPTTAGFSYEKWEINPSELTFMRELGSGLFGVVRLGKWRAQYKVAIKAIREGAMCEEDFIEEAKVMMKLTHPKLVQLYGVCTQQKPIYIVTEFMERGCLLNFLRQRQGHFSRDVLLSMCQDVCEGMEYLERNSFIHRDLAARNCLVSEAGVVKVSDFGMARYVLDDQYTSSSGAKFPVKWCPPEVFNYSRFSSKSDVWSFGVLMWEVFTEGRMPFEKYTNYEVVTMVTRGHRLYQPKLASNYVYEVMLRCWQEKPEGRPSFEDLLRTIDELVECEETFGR
UniProt P29597: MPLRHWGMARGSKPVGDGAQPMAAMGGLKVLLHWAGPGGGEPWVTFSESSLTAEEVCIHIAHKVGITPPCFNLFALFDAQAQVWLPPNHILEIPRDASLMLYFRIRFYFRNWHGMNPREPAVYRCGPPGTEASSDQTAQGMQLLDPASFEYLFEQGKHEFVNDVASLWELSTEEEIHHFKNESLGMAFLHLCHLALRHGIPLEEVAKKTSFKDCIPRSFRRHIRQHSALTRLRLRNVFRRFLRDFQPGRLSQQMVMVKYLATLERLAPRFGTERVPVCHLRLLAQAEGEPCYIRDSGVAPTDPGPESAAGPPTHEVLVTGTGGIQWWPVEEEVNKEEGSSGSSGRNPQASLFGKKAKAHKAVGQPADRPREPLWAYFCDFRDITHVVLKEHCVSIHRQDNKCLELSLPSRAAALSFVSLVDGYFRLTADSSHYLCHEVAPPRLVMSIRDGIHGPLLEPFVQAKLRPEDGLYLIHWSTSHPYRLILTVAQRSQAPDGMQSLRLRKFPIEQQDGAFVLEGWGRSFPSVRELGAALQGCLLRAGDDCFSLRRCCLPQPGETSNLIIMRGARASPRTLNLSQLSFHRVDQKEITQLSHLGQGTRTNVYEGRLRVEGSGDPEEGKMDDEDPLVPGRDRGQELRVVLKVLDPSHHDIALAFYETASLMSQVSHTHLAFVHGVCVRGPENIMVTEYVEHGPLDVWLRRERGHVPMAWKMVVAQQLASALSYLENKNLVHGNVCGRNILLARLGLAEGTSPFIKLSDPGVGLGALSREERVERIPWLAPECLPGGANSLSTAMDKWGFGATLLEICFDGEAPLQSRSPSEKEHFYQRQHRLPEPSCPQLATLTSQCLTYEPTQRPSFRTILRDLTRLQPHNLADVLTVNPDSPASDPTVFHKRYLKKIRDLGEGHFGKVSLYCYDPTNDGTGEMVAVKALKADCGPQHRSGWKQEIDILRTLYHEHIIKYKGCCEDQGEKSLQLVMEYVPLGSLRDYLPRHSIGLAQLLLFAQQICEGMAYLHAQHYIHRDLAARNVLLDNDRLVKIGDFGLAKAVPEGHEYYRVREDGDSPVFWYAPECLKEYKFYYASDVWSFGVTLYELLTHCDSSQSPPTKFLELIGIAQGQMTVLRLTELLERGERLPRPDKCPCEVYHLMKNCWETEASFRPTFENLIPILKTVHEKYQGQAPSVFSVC
UniProt Q6PHR2: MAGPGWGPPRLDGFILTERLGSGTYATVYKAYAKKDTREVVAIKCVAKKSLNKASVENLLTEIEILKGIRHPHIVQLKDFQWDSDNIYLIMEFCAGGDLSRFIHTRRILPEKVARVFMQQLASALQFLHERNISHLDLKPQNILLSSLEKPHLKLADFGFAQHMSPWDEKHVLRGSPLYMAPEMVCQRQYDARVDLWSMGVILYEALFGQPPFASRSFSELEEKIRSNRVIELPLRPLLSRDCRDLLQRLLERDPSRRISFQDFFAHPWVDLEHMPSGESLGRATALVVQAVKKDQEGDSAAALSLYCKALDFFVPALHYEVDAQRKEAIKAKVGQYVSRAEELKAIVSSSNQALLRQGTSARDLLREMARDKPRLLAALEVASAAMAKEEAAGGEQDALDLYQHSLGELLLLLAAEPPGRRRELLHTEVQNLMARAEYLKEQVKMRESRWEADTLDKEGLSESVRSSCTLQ
UniProt P07947, whole entry, looked up: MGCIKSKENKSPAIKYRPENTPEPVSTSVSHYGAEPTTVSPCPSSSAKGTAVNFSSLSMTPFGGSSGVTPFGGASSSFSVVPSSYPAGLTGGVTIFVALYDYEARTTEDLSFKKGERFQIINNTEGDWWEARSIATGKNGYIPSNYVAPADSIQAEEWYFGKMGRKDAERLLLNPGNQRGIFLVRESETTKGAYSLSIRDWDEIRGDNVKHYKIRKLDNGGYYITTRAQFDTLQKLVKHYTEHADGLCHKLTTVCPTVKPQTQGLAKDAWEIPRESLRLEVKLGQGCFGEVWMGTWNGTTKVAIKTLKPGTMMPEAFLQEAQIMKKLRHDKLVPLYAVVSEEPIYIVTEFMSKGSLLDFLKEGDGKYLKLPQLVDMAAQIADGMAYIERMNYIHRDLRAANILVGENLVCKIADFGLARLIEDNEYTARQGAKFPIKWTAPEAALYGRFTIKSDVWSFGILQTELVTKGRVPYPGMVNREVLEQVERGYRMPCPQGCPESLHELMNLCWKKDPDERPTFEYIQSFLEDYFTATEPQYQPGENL
UniProt P43403: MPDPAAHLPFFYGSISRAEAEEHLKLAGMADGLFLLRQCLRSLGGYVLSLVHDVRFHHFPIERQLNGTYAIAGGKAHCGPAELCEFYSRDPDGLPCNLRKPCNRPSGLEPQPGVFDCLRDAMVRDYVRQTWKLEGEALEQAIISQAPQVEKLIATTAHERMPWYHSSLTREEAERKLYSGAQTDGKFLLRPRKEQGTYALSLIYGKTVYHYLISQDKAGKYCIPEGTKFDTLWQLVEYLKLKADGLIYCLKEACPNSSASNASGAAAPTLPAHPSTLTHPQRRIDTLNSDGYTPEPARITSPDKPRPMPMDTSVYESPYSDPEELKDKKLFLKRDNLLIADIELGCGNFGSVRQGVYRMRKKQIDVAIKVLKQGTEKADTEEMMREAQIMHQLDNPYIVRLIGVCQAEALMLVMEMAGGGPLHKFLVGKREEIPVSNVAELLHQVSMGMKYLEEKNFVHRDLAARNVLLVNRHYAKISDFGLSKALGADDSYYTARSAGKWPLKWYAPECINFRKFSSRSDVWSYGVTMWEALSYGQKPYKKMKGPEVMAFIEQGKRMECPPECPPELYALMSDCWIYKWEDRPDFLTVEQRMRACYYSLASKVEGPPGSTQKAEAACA
UniProt P00519, whole entry: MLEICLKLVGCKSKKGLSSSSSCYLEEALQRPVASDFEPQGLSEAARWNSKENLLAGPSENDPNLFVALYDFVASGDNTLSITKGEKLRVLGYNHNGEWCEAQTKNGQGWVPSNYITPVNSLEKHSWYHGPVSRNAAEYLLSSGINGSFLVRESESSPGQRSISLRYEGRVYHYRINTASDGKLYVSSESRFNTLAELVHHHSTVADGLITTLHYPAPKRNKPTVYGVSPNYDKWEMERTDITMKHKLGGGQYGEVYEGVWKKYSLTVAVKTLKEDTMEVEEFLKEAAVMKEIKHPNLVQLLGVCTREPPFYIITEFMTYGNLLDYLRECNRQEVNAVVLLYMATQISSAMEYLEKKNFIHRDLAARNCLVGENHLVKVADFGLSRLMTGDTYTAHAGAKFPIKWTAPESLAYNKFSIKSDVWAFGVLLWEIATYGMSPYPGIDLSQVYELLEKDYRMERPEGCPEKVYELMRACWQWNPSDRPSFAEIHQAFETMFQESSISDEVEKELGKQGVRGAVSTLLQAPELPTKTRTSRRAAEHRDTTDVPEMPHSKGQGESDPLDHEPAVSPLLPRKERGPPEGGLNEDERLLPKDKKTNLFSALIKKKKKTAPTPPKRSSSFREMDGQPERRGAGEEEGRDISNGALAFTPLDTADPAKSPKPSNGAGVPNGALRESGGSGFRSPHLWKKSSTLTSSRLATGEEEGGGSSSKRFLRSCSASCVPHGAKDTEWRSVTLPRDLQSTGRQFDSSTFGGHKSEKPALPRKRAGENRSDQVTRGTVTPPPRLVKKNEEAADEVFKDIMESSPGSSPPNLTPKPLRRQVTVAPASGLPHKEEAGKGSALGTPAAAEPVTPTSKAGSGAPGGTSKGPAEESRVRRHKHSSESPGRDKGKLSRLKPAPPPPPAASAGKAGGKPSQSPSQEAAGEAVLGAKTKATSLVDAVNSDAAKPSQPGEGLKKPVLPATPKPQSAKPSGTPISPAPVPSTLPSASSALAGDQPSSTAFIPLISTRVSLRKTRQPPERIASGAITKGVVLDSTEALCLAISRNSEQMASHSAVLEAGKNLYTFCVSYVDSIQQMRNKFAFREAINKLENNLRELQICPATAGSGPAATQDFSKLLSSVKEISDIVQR
UniProt P31749: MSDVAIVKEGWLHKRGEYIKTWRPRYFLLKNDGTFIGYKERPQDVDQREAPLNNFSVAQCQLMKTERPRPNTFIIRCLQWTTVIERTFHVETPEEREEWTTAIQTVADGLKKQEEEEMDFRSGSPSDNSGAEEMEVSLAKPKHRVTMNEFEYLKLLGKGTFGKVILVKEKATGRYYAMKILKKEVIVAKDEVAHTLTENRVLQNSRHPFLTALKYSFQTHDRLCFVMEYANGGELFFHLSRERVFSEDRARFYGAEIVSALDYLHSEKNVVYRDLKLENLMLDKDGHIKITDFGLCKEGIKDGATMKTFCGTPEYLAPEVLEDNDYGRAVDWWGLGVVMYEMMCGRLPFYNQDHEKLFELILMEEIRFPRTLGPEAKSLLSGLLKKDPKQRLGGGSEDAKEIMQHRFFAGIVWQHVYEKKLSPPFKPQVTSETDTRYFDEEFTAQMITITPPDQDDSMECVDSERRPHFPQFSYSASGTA

Legend:
Details in all cases: K562; 2-18 h
STK38 = STK38 (UniProt Q15208); assay: kinase-Nluc reporter destabilization hit call (1 = scored as downregulated) (binary); higher = compound decreases kinase abundance
SYK = SYK (UniProt P43405); assay: as above
TEC = TEC (UniProt P42680); assay: as above
TYK2 = TYK2 (UniProt P29597); assay: as above
ULK3 = ULK3 (UniProt Q6PHR2); assay: as above
YES1 = YES1 (UniProt P07947); assay: as above
ZAK = ZAK (UniProt Q9NYL2); assay: as above
ZAP70 = ZAP70 (UniProt P43403); assay: as above
ABL1 = ABL1 (UniProt P00519); assay: number of time points (of 5) at which kinase-Nluc abundance scored as decreased, DMSO-normalised (count); higher = more persistent destabilization
AKT1 = AKT1 (UniProt P31749); assay: as above

In the case of `O=C(NCCO)c1ccc2c(c1)nc(Nc1cccc(Cl)c1)c1ccncc12` [CK2 inhibitor 2] (10 µM), the “kinase-Nluc reporter destabilization hit call” value (STK38) is reported as inactive: 0, the “kinase-Nluc reporter destabilization hit call” value (SYK) is reported as inactive: 0 and the “kinase-Nluc reporter destabilization hit call” value (TEC) is reported as inactive: 0. For the same compound, the “kinase-Nluc reporter destabilization hit call” value (TYK2) was inactive: 0, the “kinase-Nluc reporter destabilization hit call” value (ULK3) was inactive: 0 and the “kinase-Nluc reporter destabilization hit call” value (YES1) was inactive: 0. The “kinase-Nluc reporter destabilization hit call” value (ZAK) was inactive: 0, the “kinase-Nluc reporter destabilization hit call” value (ZAP70) was inactive: 0 and the “number of time points” value (ABL1) was 0. The “number of time points” value (AKT1) was 0.

In the case of `CCOc1cc(C(=O)N2CCC(N3CCN(C)CC3)CC2)ccc1Nc1ncc2c(n1)N(C1CCCC1)c1ccccc1C(=O)N2C` (10 µM), the “kinase-Nluc reporter destabilization hit call” value (STK38) is reported as inactive: 0, the “kinase-Nluc reporter destabilization hit call” value (SYK) is reported as inactive: 0 and the “kinase-Nluc reporter destabilization hit call” value (TEC) is reported as inactive: 0. For the same compound, the “kinase-Nluc reporter destabilization hit call” value (TYK2) was inactive: 0, the “kinase-Nluc reporter destabilization hit call” value (ULK3) was inactive: 0 and the “kinase-Nluc reporter destabilization hit call” value (YES1) was inactive: 0. The “kinase-Nluc reporter destabilization hit call” value (ZAK) was inactive: 0, the “kinase-Nluc reporter destabilization hit call” value (ZAP70) was inactive: 0 and the “number of time points” value (ABL1) was 0. For the same compound, the “number of time points” value (AKT1) was 0.

For `Cc1csc(-c2nnc(Nc3ccc(Oc4ncccc4-c4ccnc(N)n4)cc3)c3ccccc23)c1` (2.5 µM), the “kinase-Nluc reporter destabilization hit call” value (STK38) was inactive: 0, the “kinase-Nluc reporter destabilization hit call” value (SYK) was inactive: 0 and the “kinase-Nluc reporter destabilization hit call” value (TEC) was inactive: 0. For the same compound, the “kinase-Nluc reporter destabilization hit call” value (TYK2) was inactive: 0, the “kinase-Nluc reporter destabilization hit call” value (ULK3) was inactive: 0 and the “kinase-Nluc reporter destabilization hit call” value (YES1) was inactive: 0. For the same compound, the “kinase-Nluc reporter destabilization hit call” value (ZAK) was inactive: 0, the “kinase-Nluc reporter destabilization hit call” value (ZAP70) was inactive: 0 and the “number of time points” value (ABL1) was 2. For the same compound, the “number of time points” value (AKT1) was 0.

With `COc1ccc(CC(=O)Nc2nc3c(s2)CCc2ccccc2-3)cc1OC` (10 µM) the “kinase-Nluc reporter destabilization hit call” value (STK38) was inactive: 0, the “kinase-Nluc reporter destabilization hit call” value (SYK) was inactive: 0 and the “kinase-Nluc reporter destabilization hit call” value (TEC) was inactive: 0. For the same compound, the “kinase-Nluc reporter destabilization hit call” value (TYK2) was inactive: 0, the “kinase-Nluc reporter destabilization hit call” value (ULK3) was inactive: 0 and the “kinase-Nluc reporter destabilization hit call” value (YES1) was inactive: 0. The “kinase-Nluc reporter destabilization hit call” value (ZAK) was inactive: 0, the “kinase-Nluc reporter destabilization hit call” value (ZAP70) was inactive: 0 and the “number of time points” value (ABL1) was 0. The “number of time points” value (AKT1) was 0.

In the case of `Cc1c(CN2CCN(S(C)(=O)=O)CC2)sc2c(N3CCOCC3)nc(-c3cnc(N)nc3)nc12` (2.5 µM), the “kinase-Nluc reporter destabilization hit call” value (STK38) is reported as inactive: 0, the “kinase-Nluc reporter destabilization hit call” value (SYK) is reported as inactive: 0 and the “kinase-Nluc reporter destabilization hit call” value (TEC) is reported as inactive: 0. For the same compound, the “kinase-Nluc reporter destabilization hit call” value (TYK2) was inactive: 0, the “kinase-Nluc reporter destabilization hit call” value (ULK3) was inactive: 0 and the “kinase-Nluc reporter destabilization hit call” value (YES1) was inactive: 0. For the same compound, the “kinase-Nluc reporter destabilization hit call” value (ZAK) was inactive: 0, the “kinase-Nluc reporter destabilization hit call” value (ZAP70) was inactive: 0 and the “number of time points” value (ABL1) was 0. The “number of time points” value (AKT1) was 0.

With `O=C(Nc1ccc2[nH]nc(-c3ccncc3)c2c1)[C@@H]1CCN(CC(=O)N2CCN(c3ccc(-c4ncccn4)cc3)CC2)C1` (2.5 µM) the “kinase-Nluc reporter destabilization hit call” value (STK38) was inactive: 0, the “kinase-Nluc reporter destabilization hit call” value (SYK) was inactive: 0 and the “kinase-Nluc reporter destabilization hit call” value (TEC) was inactive: 0. The “kinase-Nluc reporter destabilization hit call” value (TYK2) was inactive: 0, the “kinase-Nluc reporter destabilization hit call” value (ULK3) was inactive: 0 and the “kinase-Nluc reporter destabilization hit call” value (YES1) was inactive: 0. For the same compound, the “kinase-Nluc reporter destabilization hit call” value (ZAK) was inactive: 0, the “kinase-Nluc reporter destabilization hit call” value (ZAP70) was inactive: 0 and the “number of time points” value (ABL1) was 0. For the same compound, the “number of time points” value (AKT1) was 0.

For `N#CC(c1ccnc(NCCc2cccnc2)n1)c1nc2ccccc2s1` (stereo not given) (10 µM), the “kinase-Nluc reporter destabilization hit call” value (STK38) was inactive: 0, the “kinase-Nluc reporter destabilization hit call” value (SYK) was inactive: 0 and the “kinase-Nluc reporter destabilization hit call” value (TEC) was inactive: 0. The “kinase-Nluc reporter destabilization hit call” value (TYK2) was inactive: 0, the “kinase-Nluc reporter destabilization hit call” value (ULK3) was inactive: 0 and the “kinase-Nluc reporter destabilization hit call” value (YES1) was inactive: 0. The “kinase-Nluc reporter destabilization hit call” value (ZAK) was inactive: 0, the “kinase-Nluc reporter destabilization hit call” value (ZAP70) was inactive: 0 and the “number of time points” value (ABL1) was 0. For the same compound, the “number of time points” value (AKT1) was 0.

For `COc1ccc([C@@H]2CC(=O)c3c(O)cc(O)cc3O2)cc1O` [Hesperetin] (10 µM), the “kinase-Nluc reporter destabilization hit call” value (STK38) was inactive: 0, the “kinase-Nluc reporter destabilization hit call” value (SYK) was inactive: 0 and the “kinase-Nluc reporter destabilization hit call” value (TEC) was inactive: 0. For the same compound, the “kinase-Nluc reporter destabilization hit call” value (TYK2) was inactive: 0, the “kinase-Nluc reporter destabilization hit call” value (ULK3) was inactive: 0 and the “kinase-Nluc reporter destabilization hit call” value (YES1) was inactive: 0. The “kinase-Nluc reporter destabilization hit call” value (ZAK) was inactive: 0, the “kinase-Nluc reporter destabilization hit call” value (ZAP70) was inactive: 0 and the “number of time points” value (ABL1) was 0. For the same compound, the “number of time points” value (AKT1) was 0.

`CC(C)(C)NC(=O)c1cncn1C1CCN(c2ccc(-c3nnc(C(F)(F)F)o3)cn2)CC1` (10 µM) was tested, and the “kinase-Nluc reporter destabilization hit call” value (STK38) was inactive: 0, the “kinase-Nluc reporter destabilization hit call” value (SYK) was inactive: 0 and the “kinase-Nluc reporter destabilization hit call” value (TEC) was inactive: 0. The “kinase-Nluc reporter destabilization hit call” value (TYK2) was inactive: 0, the “kinase-Nluc reporter destabilization hit call” value (ULK3) was inactive: 0 and the “kinase-Nluc reporter destabilization hit call” value (YES1) was inactive: 0. For the same compound, the “kinase-Nluc reporter destabilization hit call” value (ZAK) was inactive: 0, the “kinase-Nluc reporter destabilization hit call” value (ZAP70) was inactive: 0 and the “number of time points” value (ABL1) was 0. The “number of time points” value (AKT1) was 0.

With `CC(C)c1cnc(-c2cc(Cl)ccc2F)cc1Nc1ccncc1C(=O)NC(CO)CO` (2.5 µM) the “kinase-Nluc reporter destabilization hit call” value (STK38) was inactive: 0, the “kinase-Nluc reporter destabilization hit call” value (SYK) was inactive: 0 and the “kinase-Nluc reporter destabilization hit call” value (TEC) was inactive: 0. The “kinase-Nluc reporter destabilization hit call” value (TYK2) was inactive: 0, the “kinase-Nluc reporter destabilization hit call” value (ULK3) was inactive: 0 and the “kinase-Nluc reporter destabilization hit call” value (YES1) was inactive: 0. For the same compound, the “kinase-Nluc reporter destabilization hit call” value (ZAK) was inactive: 0, the “kinase-Nluc reporter destabilization hit call” value (ZAP70) was inactive: 0 and the “number of time points” value (ABL1) was 0. The “number of time points” value (AKT1) was 0.

`O=C(Nc1nc2ccccc2[nH]1)c1cccc(-n2cccc2)c1` (10 µM) was tested, and the “kinase-Nluc reporter destabilization hit call” value (STK38) was inactive: 0, the “kinase-Nluc reporter destabilization hit call” value (SYK) was inactive: 0 and the “kinase-Nluc reporter destabilization hit call” value (TEC) was inactive: 0. The “kinase-Nluc reporter destabilization hit call” value (TYK2) was inactive: 0, the “kinase-Nluc reporter destabilization hit call” value (ULK3) was inactive: 0 and the “kinase-Nluc reporter destabilization hit call” value (YES1) was inactive: 0. The “kinase-Nluc reporter destabilization hit call” value (ZAK) was inactive: 0, the “kinase-Nluc reporter destabilization hit call” value (ZAP70) was inactive: 0 and the “number of time points” value (ABL1) was 0. For the same compound, the “number of time points” value (AKT1) was 0.

In the case of `CCN1CCN(Cc2ccc(Nc3ncc(F)c(-c4cc(F)c5nc(CO)n(C(C)C)c5c4)n3)nc2)CC1` [Abemaciclib metabolite M20] (2 µM), the “kinase-Nluc reporter destabilization hit call” value (STK38) is reported as inactive: 0, the “kinase-Nluc reporter destabilization hit call” value (SYK) is reported as inactive: 0 and the “kinase-Nluc reporter destabilization hit call” value (TEC) is reported as inactive: 0. The “kinase-Nluc reporter destabilization hit call” value (TYK2) was inactive: 0, the “kinase-Nluc reporter destabilization hit call” value (ULK3) was inactive: 0 and the “kinase-Nluc reporter destabilization hit call” value (YES1) was inactive: 0. The “kinase-Nluc reporter destabilization hit call” value (ZAK) was inactive: 0, the “kinase-Nluc reporter destabilization hit call” value (ZAP70) was inactive: 0 and the “number of time points” value (ABL1) was 0. The “number of time points” value (AKT1) was 0.

In the case of `COc1ccc(C(=C2C(=O)Nc3ccccc32)c2ccc(OC)cc2)cc1` (10 µM), the “kinase-Nluc reporter destabilization hit call” value (STK38) is reported as inactive: 0, the “kinase-Nluc reporter destabilization hit call” value (SYK) is reported as inactive: 0 and the “kinase-Nluc reporter destabilization hit call” value (TEC) is reported as inactive: 0. For the same compound, the “kinase-Nluc reporter destabilization hit call” value (TYK2) was inactive: 0, the “kinase-Nluc reporter destabilization hit call” value (ULK3) was inactive: 0 and the “kinase-Nluc reporter destabilization hit call” value (YES1) was inactive: 0. The “kinase-Nluc reporter destabilization hit call” value (ZAK) was inactive: 0, the “kinase-Nluc reporter destabilization hit call” value (ZAP70) was inactive: 0 and the “number of time points” value (ABL1) was 0. For the same compound, the “number of time points” value (AKT1) was 0.

With `CC(C)=CCC[C@](C)(O[C@@H]1O[C@H](CO)[C@@H](O)[C@H](O)[C@H]1O)[C@H]1CC[C@]2(C)[C@@H]1[C@H](O)C[C@@H]1[C@@]3(C)CC[C@H](O)C(C)(C)[C@@H]3[C@@H](O[C@@H]3O[C@H](CO)[C@@H](O)[C@H](O)[C@H]3O[C@@H]3O[C@@H](C)[C@H](O)[C@@H](O)[C@H]3O)C[C@]12C` [Ginsenoside Re] (10 µM) the “kinase-Nluc reporter destabilization hit call” value (STK38) was inactive: 0, the “kinase-Nluc reporter destabilization hit call” value (SYK) was inactive: 0 and the “kinase-Nluc reporter destabilization hit call” value (TEC) was inactive: 0. For the same compound, the “kinase-Nluc reporter destabilization hit call” value (TYK2) was inactive: 0, the “kinase-Nluc reporter destabilization hit call” value (ULK3) was inactive: 0 and the “kinase-Nluc reporter destabilization hit call” value (YES1) was inactive: 0. For the same compound, the “kinase-Nluc reporter destabilization hit call” value (ZAK) was inactive: 0, the “kinase-Nluc reporter destabilization hit call” value (ZAP70) was inactive: 0 and the “number of time points” value (ABL1) was 0. For the same compound, the “number of time points” value (AKT1) was 0.
